Experimental data: PMC1899183
Like-named read-outs stand apart in the source and are kept apart here. These are yes or no findings as the source states them, for the method shown. In cells and extracts the contact can be indirect. Some binding calls cover weakened binding; strength is not graded here. For part of these data: Where a sequence is shown, tags or fusion partners need not be part of it.

Protein sequences, listed by entry. Tags and fused reporters are not part of them. Lines headed by an entry give the natural chain unless they say otherwise; changes in a name come on top. Residues count along the entry.
UniProt P08631: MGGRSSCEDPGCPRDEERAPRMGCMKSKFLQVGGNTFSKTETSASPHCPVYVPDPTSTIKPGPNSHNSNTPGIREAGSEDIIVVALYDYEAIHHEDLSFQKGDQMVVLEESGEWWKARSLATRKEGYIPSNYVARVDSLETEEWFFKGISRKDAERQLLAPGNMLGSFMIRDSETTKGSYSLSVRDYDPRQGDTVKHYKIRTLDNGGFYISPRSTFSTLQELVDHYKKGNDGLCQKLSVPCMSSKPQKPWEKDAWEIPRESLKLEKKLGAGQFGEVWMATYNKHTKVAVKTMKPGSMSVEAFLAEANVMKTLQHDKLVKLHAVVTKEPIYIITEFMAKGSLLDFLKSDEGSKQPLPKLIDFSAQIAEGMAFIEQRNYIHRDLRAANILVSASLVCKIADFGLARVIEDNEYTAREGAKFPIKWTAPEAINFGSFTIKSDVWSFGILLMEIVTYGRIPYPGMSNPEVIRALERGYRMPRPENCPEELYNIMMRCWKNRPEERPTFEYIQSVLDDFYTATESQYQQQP
Human p59 Hck: residues 22-526 of P08631

Key:
[1] = target: Human p59 Hck (human) (UniProt P08631); test: co-IP; Cos1 cells transiently transfected; lysis in 50 mM Tris-Cl pH 7.5, 150 mM NaCl, 10% glycerol, 0.5% NP-40; Hck polyclonal antibody or control rabbit IgG overnight at 4°C; Protein A/G Plus beads; western blot
[2] = target: Human p59 Hck (human) (UniProt P08631); test: as above; remark: listed apart in the source
[3] = target: endogenous Hck (human (endogenous in HL-60)) (UniProt P08631); test: co-IP; endogenous proteins; lysates of differentiated HL-60 cells (DMSO 1.25%) immunoprecipitated with Hck antibody or control rabbit IgG; western blot for p73 and Hck

Molecule: GFP-YAP (from UniProt P46937-5 1-450)
- binding [1]: binds

B1: HA-p73α (protein, UniProt O15350-1 1-636)
chain: MAQSTATSPDGGTTFEHLWSSLEPDSTYFDLPQSSRGNNEVVGGTDSSMDVFHLEGMTTSVMAQFNLLSSTMDQMSSRAASASPYTPEHAASVPTHSPYAQPSSTFDTMSPAPVIPSNTDYPGPHHFEVTFQQSSTAKSATWTYSPLLKKLYCQIAKTCPIQIKVSTPPPPGTAIRAMPVYKKAEHVTDVVKRCPNHELGRDFNEGQSAPASHLIRVEGNNLSQYVDDPVTGRQSVVVPYEPPQVGTEFTTILYNFMCNSSCVGGMNRRPILIIITLEMRDGQVLGRRSFEGRICACPGRDRKADEDHYREQQALNESSAKNGAASKRAFKQSPPAVPALGAGVKKRRHGDEDTYYLQVRGRENFEILMKLKESLELMELVPQPLVDSYRQQQQLLQRPSHLQPPSYGPVLSPMNKVHGGMNKLPSVNQLVGQPPPHSSAATPNLGPVGPGMLNNHGHAVPANGEMSSSHSAQSMVSGSHCTPPPPYHADPSLVSFLTGLGCPNCIEYFTSQGLQSIYHLQNLTIEDLGALKIPEQYRMTIWRGLQDLKQGHDYSTAQQLLRSSNAATISIGGSGELQRQRVMEAVHFRVRHTITIPNRGGPGGGPDEWADFGFDLPDCKARKQPIKEEFTEAEIH
- binding [2]: binds

B2: endogenous p73α (protein, UniProt O15350-1 1-636)
chain: MAQSTATSPDGGTTFEHLWSSLEPDSTYFDLPQSSRGNNEVVGGTDSSMDVFHLEGMTTSVMAQFNLLSSTMDQMSSRAASASPYTPEHAASVPTHSPYAQPSSTFDTMSPAPVIPSNTDYPGPHHFEVTFQQSSTAKSATWTYSPLLKKLYCQIAKTCPIQIKVSTPPPPGTAIRAMPVYKKAEHVTDVVKRCPNHELGRDFNEGQSAPASHLIRVEGNNLSQYVDDPVTGRQSVVVPYEPPQVGTEFTTILYNFMCNSSCVGGMNRRPILIIITLEMRDGQVLGRRSFEGRICACPGRDRKADEDHYREQQALNESSAKNGAASKRAFKQSPPAVPALGAGVKKRRHGDEDTYYLQVRGRENFEILMKLKESLELMELVPQPLVDSYRQQQQLLQRPSHLQPPSYGPVLSPMNKVHGGMNKLPSVNQLVGQPPPHSSAATPNLGPVGPGMLNNHGHAVPANGEMSSSHSAQSMVSGSHCTPPPPYHADPSLVSFLTGLGCPNCIEYFTSQGLQSIYHLQNLTIEDLGALKIPEQYRMTIWRGLQDLKQGHDYSTAQQLLRSSNAATISIGGSGELQRQRVMEAVHFRVRHTITIPNRGGPGGGPDEWADFGFDLPDCKARKQPIKEEFTEAEIH
- binding [3]: binds
